Laboratory results taken from PubChem BioAssay AID1671190 (National Center for Advancing Translational Sciences (NCATS), 2021).
The whole screen tested about 580,000 compounds, of which about 6,100 (1.1%) were called active. Inconclusive means that the source gave no clear call. Such entries were picked first, then a sample of the others. Calls come from the whole dose curve; as a rule, active = well fitted inhibition curve with a large enough effect; inconclusive = small, poorly fitted or top-dose-only effect, or another doubt; inactive = no such curve, though single readings can be large or run the other way. A potency beside an inconclusive call is a rough fit, not a confirmed value.

The chains behind the UniProt entries cited, without tags or fusion partners. Where a name states a change or a piece, a line headed by the entry shows the natural chain unless it says otherwise.
UniProt P18054: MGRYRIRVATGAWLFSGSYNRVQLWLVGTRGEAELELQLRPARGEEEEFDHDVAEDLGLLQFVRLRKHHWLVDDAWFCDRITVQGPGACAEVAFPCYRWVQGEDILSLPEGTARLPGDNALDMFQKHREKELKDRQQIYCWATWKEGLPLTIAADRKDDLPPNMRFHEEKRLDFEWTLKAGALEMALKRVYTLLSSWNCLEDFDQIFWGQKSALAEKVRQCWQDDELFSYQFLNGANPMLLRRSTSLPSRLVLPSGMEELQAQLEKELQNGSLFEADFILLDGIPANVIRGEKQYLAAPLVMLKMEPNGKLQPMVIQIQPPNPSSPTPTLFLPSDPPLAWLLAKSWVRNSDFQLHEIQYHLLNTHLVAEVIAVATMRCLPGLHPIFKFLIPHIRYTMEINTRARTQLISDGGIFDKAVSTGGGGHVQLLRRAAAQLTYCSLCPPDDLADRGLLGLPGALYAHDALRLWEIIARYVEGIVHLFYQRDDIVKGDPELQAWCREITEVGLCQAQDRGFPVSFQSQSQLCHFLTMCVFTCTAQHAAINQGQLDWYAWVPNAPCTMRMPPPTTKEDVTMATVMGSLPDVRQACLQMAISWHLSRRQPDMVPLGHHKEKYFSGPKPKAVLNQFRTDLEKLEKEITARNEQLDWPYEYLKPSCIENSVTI

molecular target: Polyunsaturated fatty acid lipoxygenase ALOX12 (Homo sapiens) (UniProt P18054); test: Primary qHTS assay for inhibitors of human arachidonate 12S-lipoxygenase (ALOX12): Round 2; conditions: purified 12hLO, xylenol orange hydroperoxide absorbance; activity change, negative = inhibition: at 108 µM (top of the series) unless noted
In short: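 Hydroperoxide product was detected by ferrous iron/xylenol orange as the 573 to 405 nm absorbance ratio. Arachidonic acid at 40 uM (final) was turned over for 30 min at room temperature by 150 nM human 12hLO, pH 7.0 Hepes buffer, after 15 min compound preincubation.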
% is set by controls: 0 for no effect and ±100 for the full control effect; potency is the fitted concentration of half-maximal effect.

| Compound | Potency | activity change, negative = inhibition |
| --- | --- | --- |
| Cc1c(NC(=O)c2c(N)sc3c2CCCC3)c(=O)n(-c2ccccc2)n1C | inconclusive: 50.1 µM [inhibitor, partial curve, poor fit] | – |
| COc1cc(/C=C2/NC(=O)NC2=O)cc(I)c1OCc1cccc(C(=O)O)c1 | inconclusive: 44.7 µM [inhibitor, partial curve] | – |
| Cc1ccc(C)c(NC2=NCC(=O)N2C2CCCCC2)c1 | inconclusive: 39.8 µM [inhibitor, partial curve, poor fit] | – |
| CC(=O)c1cn(CC(=O)Nc2ccccc2C)c2ccccc12 | inconclusive: 50.1 µM [inhibitor, partial curve, poor fit] | – |
| COc1ccc(CN(C)C(=O)C2(C)CCOCC2)cc1 | – | inactive: 1.04% [at 12.5 µM] |
| Fc1ccc(Nc2cccc3nccnc23)cc1 | inactive | – |
| Cc1cc(N2C(=O)C(=O)/C(=C(/O)c3ccc(Br)cc3)C2c2cccc(O)c2)no1 (stereo unspecified) | inconclusive: 31.6 µM [inhibitor, partial curve] | – |
| O=C(COc1ncnc2sc3c(c12)CCC3)N1CCc2ccccc2C1 | inconclusive: 79.4 µM [inhibitor, partial curve, poor fit] | – |
| COc1ccc(Oc2cccc(Cl)c2CNC(=O)CCCC(=O)O)cc1 | inconclusive: 100 µM [inhibitor, partial curve, poor fit] | – |
| O=C(NC1CCCC1)C(NS(=O)(=O)c1ccc(Br)s1)c1ccccc1 (stereo unspecified) | inconclusive: 50.1 µM [inhibitor, partial curve, poor fit] | – |
| CC(C)=CCC/C(C)=C/CN(CC(C)O)CC(C)O (stereo unspecified) | inconclusive: 0.891 µM [inhibitor, full curve, poor fit] | – |
| CCc1nc(C)cn1S(=O)(=O)c1cc(F)ccc1OC | inactive | – |
| CCNC(=O)C(=O)NCC(c1ccco1)S(=O)(=O)c1ccc(Cl)cc1 (stereo unspecified) | inconclusive: 28.2 µM [inhibitor, partial curve, poor fit] | – |
| CCN(CC)c1ccc(/C=N/Nc2cccc(C)c2)c(O)c1 | inconclusive: 44.7 µM [inhibitor, partial curve, poor fit] | – |
| Cc1cccc(NC(=O)CN2C(=O)C(c3ccc(F)cc3)=NC23CCCCCC3)c1C | inconclusive: 100 µM [inhibitor, single point] | – |
| CN(CC1CCCN(CCc2cccc(C(F)(F)F)c2)C1)C(=O)c1cc2ccccc2o1 (stereo unspecified) | inconclusive: 50.1 µM [inhibitor, partial curve, poor fit] | – |
| Cc1nc(Oc2ccc(F)cc2)c2c3c(sc2n1)CCCC3 | inactive | – |
| COc1ccc(S(=O)(=O)N/N=C(/C)c2ccco2)cc1 | inconclusive: 35.5 µM [inhibitor, partial curve, poor fit] | – |
| COc1ccc(-c2nc3cc(C)ccn3c2NCC2CCCO2)cc1OC (stereo unspecified) | inactive | – |
| COc1ccc(-c2c(C#Cc3ccsc3)c3cc(-c4ccc5cc[nH]c5c4)ccc3n2C)cc1 | inconclusive: 112 µM [inhibitor, single point] | – |
| CC1CCN(c2nc3ccccc3nc2C(C#N)S(=O)(=O)c2cccc(Cl)c2)CC1 (stereo unspecified) | active: 11.2 µM | – |
| CCn1c(Cc2ccc(OC)cc2)nnc1SCC(=O)N1CCN(c2ccccc2)CC1 | inconclusive: 126 µM [inhibitor, single point] | – |

Laid out differently: results already given.
Compound	Potency	activity change, negative = inhibition
CC(=O)c1cn(CC(=O)Nc2ccccc2C)c2ccccc12	inconclusive: 50.1 µM [inhibitor, partial curve, poor fit]	–
COc1ccc(CN(C)C(=O)C2(C)CCOCC2)cc1	–	inactive: 1.04% [at 12.5 µM]
Fc1ccc(Nc2cccc3nccnc23)cc1	inactive	–
Cc1cc(N2C(=O)C(=O)/C(=C(/O)c3ccc(Br)cc3)C2c2cccc(O)c2)no1 (stereo unspecified)	inconclusive: 31.6 µM [inhibitor, partial curve]	–

The results go on:

| Compound | Potency | activity change, negative = inhibition |
| --- | --- | --- |
| CCCC(NCc1ccco1)c1ccccc1 (stereo unspecified) | inconclusive: 31.6 µM [inhibitor, partial curve, poor fit] | – |
| CCN(CC)S(=O)(=O)c1cccc(-c2n[nH]c(=S)n2Cc2ccccc2)c1 | inconclusive: 44.7 µM [inhibitor, partial curve, poor fit] | – |
| C/C(=C\C(=O)c1ccc(C)o1)Nc1ccc2c(c1)OCO2 | inconclusive: 44.7 µM [inhibitor, partial curve, poor fit] | – |
| CCCSc1ccc2nc(-c3ccccc3)cn2c1 | inconclusive: 100 µM [inhibitor, partial curve, poor fit] | – |
| COc1ccc(-c2nc(CNC(=O)NC(C)C)c(C)o2)cc1 | inactive | – |
| COc1ccc(C(CNC(=O)COc2cccc(C)c2C)N2CCCCC2)cc1 (stereo unspecified) | inconclusive: 35.5 µM [inhibitor, partial curve, poor fit] | – |
| CC(C)(C)c1ccc(OCCn2nc(C(=O)O)c3ccccc3c2=O)cc1 | inactive | – |
| COc1ccc(N(C(=O)c2snc(C(N)=O)c2N)C(C(=O)NC2CCCC2)c2cc(OC)ccc2OC)c(OC)c1 (stereo unspecified) | inactive | – |
| Cc1cc(NC(=O)c2ccoc2)ccc1N1CCCC1=O | inactive | – |
| COc1ncc(C(=O)NCc2cccnc2N2CCN(C(C)=O)CC2)cn1 | inactive | – |
| Cc1cc(=O)oc2cc(NC(=O)C(CCCN=C(N)N)NC(=O)OCc3ccccc3)ccc12 (stereo unspecified) | inconclusive: 79.4 µM [inhibitor, partial curve, poor fit] | – |
| Cc1ccc(NS(=O)(=O)c2ccc(-c3cnc(C)o3)cc2)c(Cl)c1 | inactive | – |
| Cc1cn2nc(C(=O)NCc3ccccc3F)cc2c(N2CCCC2)n1 | inconclusive: 22.4 µM [inhibitor, full curve] | – |
| COCc1[nH]c(=S)c(C#N)cc1C(=O)OC | inconclusive: 100 µM [inhibitor, single point] | – |
| CN(C)C(=O)c1ccc(N=Nc2c(O)c3ccccc3[nH]c2=O)cc1 | inconclusive: 3.98 µM [inhibitor, full curve, poor fit] | – |
| CN(CC(=O)Nc1ccc(F)c(F)c1F)C(=O)C1CC(=O)N(c2ccc3c(c2)OCCO3)C1 (stereo unspecified) | inconclusive: 39.8 µM [inhibitor, partial curve, poor fit] | – |
| CCCc1c(C(=O)OCC)[nH]c2c1C(=O)CC(c1ccc(N(C)C)cc1)C2 (stereo unspecified) | inconclusive: 44.7 µM [inhibitor, partial curve, poor fit] | – |
| Cc1oc(C(O)c2ccccc2F)nc1C(=O)Nc1ccc2[nH]c(=O)[nH]c2c1 (stereo unspecified) | inactive | – |
| Cc1cccc(-n2nc3c(c2NC(=O)c2ccc(Br)o2)CSC3)c1 | inactive | – |
| COc1cc(OC)c(OC)cc1CN1CCCC(C(=O)N2CCCCC2)C1 (stereo unspecified) | inconclusive: 15.8 µM [inhibitor, full curve] | – |
| COC(=O)COc1ccc(S(=O)(=O)N2CCN(c3ccccc3F)CC2)cc1C | inactive | – |
| CCn1c(CSCc2ccc(Cl)cc2)n[nH]c1=S | inconclusive: 63.1 µM [inhibitor, partial curve, poor fit] | – |

| Compound | Potency | activity change, negative = inhibition |
| --- | --- | --- |
| CN(CC(=O)Nc1ccc(OC(F)(F)F)cc1)C(=O)Cc1ccc2c(c1)CCC2 | inconclusive: 6.31 µM [inhibitor, partial curve, poor fit] | – |
| CC(=O)OCC(=O)C1(O)CCC2C3CC(C)C4=CC(=O)C=CC4(C)C3(F)C(O)CC21C (stereo unspecified) | inactive | – |
| Oc1ccc(/C=N/Nc2ccc(C(F)(F)F)cn2)cc1O | inconclusive: 17.8 µM [inhibitor, full curve, poor fit] | – |
| CCSCc1nnc(SCC(=O)Nc2ccc(OC)cc2)n1C | inconclusive: 79.4 µM [inhibitor, partial curve, poor fit] | – |
| O=C(c1ccccc1OCC1CCCN(Cc2cccs2)C1)N1CCCC1 (stereo unspecified) | inactive | – |
| COc1ccc(COC(=O)N/C=C/c2ccco2)cc1 | inconclusive: 8.91 µM [inhibitor, full curve] | – |
| CC(NC(=O)c1ccccc1)c1nc2ccccc2n1Cc1ccccc1F (stereo unspecified) | inactive | – |
| Cc1cccc(CN2CCN(C3CN(Cc4cn(Cc5ccc(C(F)(F)F)cc5)nn4)S(=O)(=O)C3)CC2)c1 (stereo unspecified) | inconclusive: 11.2 µM [inhibitor, partial curve, poor fit] | – |
| Fc1ccc(Nc2ncnc3ccccc23)cc1 | inconclusive: 25.1 µM [inhibitor, partial curve, poor fit] | – |
| CC(C)c1nc(C#N)c(NCC(c2ccccc2Cl)N2CCOCC2)o1 (stereo unspecified) | inconclusive: 112 µM [inhibitor, single point] | – |
| CC(=O)c1ccc(NC(=S)NC(C)CCc2ccccc2)cc1 (stereo unspecified) | inconclusive: 50.1 µM [inhibitor, partial curve, poor fit] | – |
| CN(C)/C=C(/C(=O)c1ccccc1Cl)S(C)(=O)=O | inconclusive: 35.5 µM [inhibitor, partial curve, poor fit] | – |
| CCCN(C(=O)c1ccc2c(=O)n3c(nc2c1)CCCCC3)c1cccc(Cl)c1 | inactive | – |
| CN1CCN(c2nc3c(c(=O)n(C)c(=O)n3C)n2Cc2cccc3ccccc23)CC1 | inactive | – |
| O=C(c1cccs1)N1N=C(c2ccc(Cl)cc2)CC1c1ccc2nccnc2c1 (stereo unspecified) | inconclusive: 112 µM [inhibitor, single point] | – |
| NC(=O)c1ccc(NC(=O)COC(=O)c2n[nH]c3ccccc23)cc1 | inconclusive: 31.6 µM [inhibitor, partial curve, poor fit] | – |
| Cn1ccc(NC(=O)c2nn(Cc3ccccc3)c(=O)c3ccccc23)n1 | inconclusive: 100 µM [inhibitor, single point] | – |
| COc1cc(C(=O)OCCOc2ccccc2F)cc(OC)c1OC | inconclusive: 126 µM [inhibitor, single point] | – |
| COc1ccc(CNC(=O)C[C@@H]2O[C@H](Cn3cc(CN(C)Cc4ccccc4)nn3)[C@@H](O)[C@H]2O)cc1 | inconclusive: 14.1 µM [inhibitor, full curve, poor fit] | – |
| CCN(CC)c1ccc(NC(=O)CCc2c[nH]c3ccccc23)cc1 | inconclusive: 7.08 µM [inhibitor, full curve, poor fit] | – |
| COP(=O)(OC)c1nc(-c2cccc3ccccc23)oc1NCCc1ccccc1 | inactive | – |
| O=C(CCC1CCN(C(=O)c2ccccc2)CC1)NCCCN1CCOCC1 | inactive | – |
